Reference: publication PMC12462987
Where two headings read alike, the source gives them in different places. Results are given in words; binding and its absence hold for the method and conditions named. Binding seen in cells or lysates may run through a third protein. Some binding calls cover weakened binding; strength is not graded here.

The chains behind the UniProt entries cited, without tags or fusion partners. Where a name states a change or a piece, a line headed by the entry shows the natural chain unless it says otherwise. A line that says so, or that is headed by a name, gives the form on record, which may keep a tag or linker. Residues count along the entry.
UniProt P49736: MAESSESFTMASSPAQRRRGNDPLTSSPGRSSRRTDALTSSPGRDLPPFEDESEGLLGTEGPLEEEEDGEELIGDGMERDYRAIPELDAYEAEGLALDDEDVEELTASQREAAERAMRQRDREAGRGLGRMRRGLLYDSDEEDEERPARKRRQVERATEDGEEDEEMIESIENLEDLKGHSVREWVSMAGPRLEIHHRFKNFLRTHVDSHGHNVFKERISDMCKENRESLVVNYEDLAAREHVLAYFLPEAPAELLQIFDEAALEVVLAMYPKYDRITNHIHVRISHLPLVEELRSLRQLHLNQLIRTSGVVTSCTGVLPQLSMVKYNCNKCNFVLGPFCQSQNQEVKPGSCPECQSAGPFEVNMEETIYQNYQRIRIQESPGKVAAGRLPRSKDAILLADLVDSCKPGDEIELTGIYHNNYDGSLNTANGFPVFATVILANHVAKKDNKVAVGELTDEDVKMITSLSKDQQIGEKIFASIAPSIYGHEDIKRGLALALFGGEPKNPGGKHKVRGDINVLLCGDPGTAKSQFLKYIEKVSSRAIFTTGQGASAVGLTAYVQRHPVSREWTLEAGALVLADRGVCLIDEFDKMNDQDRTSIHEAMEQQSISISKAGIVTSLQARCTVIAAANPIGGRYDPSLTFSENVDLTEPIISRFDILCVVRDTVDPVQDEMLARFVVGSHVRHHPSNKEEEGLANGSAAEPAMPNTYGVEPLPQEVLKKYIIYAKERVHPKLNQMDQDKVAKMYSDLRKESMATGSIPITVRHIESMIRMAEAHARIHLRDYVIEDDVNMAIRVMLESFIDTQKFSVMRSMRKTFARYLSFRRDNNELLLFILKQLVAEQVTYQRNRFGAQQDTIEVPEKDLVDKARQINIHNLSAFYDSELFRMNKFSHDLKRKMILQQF
UniProt Q9Y5B9: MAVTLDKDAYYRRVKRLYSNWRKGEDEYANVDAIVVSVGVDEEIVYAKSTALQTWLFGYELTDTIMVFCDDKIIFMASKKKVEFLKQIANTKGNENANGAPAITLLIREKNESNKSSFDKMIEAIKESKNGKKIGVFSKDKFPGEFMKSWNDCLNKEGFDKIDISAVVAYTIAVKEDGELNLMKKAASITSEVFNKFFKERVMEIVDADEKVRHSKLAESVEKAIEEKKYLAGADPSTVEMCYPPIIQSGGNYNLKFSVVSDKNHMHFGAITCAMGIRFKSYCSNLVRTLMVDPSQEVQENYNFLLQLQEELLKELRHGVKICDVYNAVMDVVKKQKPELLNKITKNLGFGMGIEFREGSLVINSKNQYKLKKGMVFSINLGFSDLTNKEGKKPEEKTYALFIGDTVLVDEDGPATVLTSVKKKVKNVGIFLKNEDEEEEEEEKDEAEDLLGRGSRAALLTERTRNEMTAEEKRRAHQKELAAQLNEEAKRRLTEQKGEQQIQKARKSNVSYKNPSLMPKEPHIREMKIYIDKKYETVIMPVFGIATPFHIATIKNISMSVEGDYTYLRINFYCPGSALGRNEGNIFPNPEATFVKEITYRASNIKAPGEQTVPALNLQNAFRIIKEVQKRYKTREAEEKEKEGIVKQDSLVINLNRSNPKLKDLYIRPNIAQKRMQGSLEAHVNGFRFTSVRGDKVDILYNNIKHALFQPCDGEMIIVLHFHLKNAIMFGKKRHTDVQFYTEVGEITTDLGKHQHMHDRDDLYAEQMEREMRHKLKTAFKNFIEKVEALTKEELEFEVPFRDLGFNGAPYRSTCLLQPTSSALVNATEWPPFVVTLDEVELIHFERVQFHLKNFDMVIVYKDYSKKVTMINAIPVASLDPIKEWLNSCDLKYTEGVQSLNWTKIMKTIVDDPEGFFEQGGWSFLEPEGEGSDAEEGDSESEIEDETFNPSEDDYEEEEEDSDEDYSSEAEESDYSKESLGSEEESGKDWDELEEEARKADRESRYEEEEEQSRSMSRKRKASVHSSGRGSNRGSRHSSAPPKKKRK
UniProt Q08945: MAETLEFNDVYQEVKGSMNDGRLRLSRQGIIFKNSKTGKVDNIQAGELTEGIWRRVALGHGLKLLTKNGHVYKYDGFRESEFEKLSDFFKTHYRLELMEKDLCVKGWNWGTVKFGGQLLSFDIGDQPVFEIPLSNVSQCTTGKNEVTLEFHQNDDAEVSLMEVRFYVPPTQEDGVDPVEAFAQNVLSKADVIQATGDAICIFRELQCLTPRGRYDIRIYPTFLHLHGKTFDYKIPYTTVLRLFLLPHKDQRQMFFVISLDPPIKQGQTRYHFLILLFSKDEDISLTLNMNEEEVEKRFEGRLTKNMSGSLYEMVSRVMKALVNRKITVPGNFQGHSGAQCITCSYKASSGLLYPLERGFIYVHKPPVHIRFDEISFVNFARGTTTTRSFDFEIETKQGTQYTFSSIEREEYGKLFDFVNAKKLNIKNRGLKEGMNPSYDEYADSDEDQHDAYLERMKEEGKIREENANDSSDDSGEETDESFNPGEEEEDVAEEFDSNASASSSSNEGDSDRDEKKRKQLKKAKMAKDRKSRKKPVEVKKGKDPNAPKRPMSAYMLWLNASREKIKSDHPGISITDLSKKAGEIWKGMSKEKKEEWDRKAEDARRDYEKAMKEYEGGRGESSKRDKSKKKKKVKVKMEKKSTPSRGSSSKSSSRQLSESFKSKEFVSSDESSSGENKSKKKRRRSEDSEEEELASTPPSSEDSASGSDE
UniProt P43268: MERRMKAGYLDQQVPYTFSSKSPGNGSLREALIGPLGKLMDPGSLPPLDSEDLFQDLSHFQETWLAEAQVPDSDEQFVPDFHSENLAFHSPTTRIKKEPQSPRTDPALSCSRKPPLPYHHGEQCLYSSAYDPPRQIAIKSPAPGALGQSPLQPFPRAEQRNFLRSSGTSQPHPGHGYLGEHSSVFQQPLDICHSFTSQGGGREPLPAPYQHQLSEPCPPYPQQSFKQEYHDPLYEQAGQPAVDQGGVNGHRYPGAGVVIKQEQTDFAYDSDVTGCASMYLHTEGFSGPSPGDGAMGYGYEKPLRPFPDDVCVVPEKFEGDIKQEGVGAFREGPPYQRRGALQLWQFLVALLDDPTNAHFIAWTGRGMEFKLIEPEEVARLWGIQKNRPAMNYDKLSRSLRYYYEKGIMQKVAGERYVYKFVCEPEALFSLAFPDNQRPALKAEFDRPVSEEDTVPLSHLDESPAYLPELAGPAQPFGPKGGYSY
Flag-tagged ETV4-ΔN (N-terminal deletion, Δ1-164aa): residues 165-484 of P43268
Flag-tagged ETV4-ΔDBD (deletion of the DNA binding domain, 337-430 aa) (P43268, form named): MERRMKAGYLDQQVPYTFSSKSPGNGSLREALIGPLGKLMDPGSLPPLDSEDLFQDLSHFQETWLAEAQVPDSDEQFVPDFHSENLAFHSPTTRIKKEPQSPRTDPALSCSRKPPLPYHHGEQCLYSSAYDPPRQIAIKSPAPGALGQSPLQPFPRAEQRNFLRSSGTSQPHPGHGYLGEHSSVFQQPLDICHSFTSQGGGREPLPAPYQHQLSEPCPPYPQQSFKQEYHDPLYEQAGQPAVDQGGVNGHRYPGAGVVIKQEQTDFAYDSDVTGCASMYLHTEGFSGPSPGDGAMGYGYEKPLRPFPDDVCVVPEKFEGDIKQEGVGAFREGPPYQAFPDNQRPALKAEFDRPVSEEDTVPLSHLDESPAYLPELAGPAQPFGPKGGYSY

How the values were obtained:
[1] = molecular target: HA-tagged MCM2-FL (UniProt P49736); assay: co-IP; HEK293T transfected with one tagged protein (Flag-ETV4 constructs, HA-MCM2 constructs or His-histone H3); anti-Flag, anti-HA or anti-His IP from RIPA lysate; immunoblot of the partner proteins of the lysate
[2] = molecular target: SUPT16H (FACT subunit), endogenous (human (endogenous in A549, H1299, HEK293T)) (UniProt Q9Y5B9); assay: co-IP; IP of the endogenous protein (anti-ETV4, anti-SSRP1 or anti-SUPT16H) from whole-cell RIPA lysates of A549 and H1299 cells, 4 °C overnight, Protein A/G Plus-Agarose, immunoblot; also cells synchronised by double thymidine block and released
[3] = molecular target: SSRP1 (FACT subunit), endogenous (human (endogenous in A549, H1299, HEK293T)) (UniProt Q08945); assay: as above
[4] = molecular target: Flag-tagged ETV4-ΔDBD (deletion of the DNA binding domain, 337-430 aa) (UniProt P43268); assay: co-IP; HEK293T transfected with one tagged protein (Flag-ETV4 constructs, HA-MCM2 constructs or His-histone H3); anti-Flag, anti-HA or anti-His IP from RIPA lysate; immunoblot of the partner proteins of the lysate
[5] = molecular target: Flag-tagged ETV4-ΔN (N-terminal deletion, Δ1-164aa) (UniProt P43268); assay: as above
[6] = molecular target: Flag-tagged full-length ETV4 (FL, 1-484aa) (UniProt P43268); assay: as above
[7] = molecular target: ETV4 (ETS transcription factor ETV4), endogenous (human (endogenous in A549, H1299, HEK293T)) (UniProt P43268); assay: co-IP; IP of the endogenous protein (anti-ETV4, anti-SSRP1 or anti-SUPT16H) from whole-cell RIPA lysates of A549 and H1299 cells, 4 °C overnight, Protein A/G Plus-Agarose, immunoblot; also cells synchronised by double thymidine block and released
[8] = molecular target: His-ETV4, purified protein (UniProt P43268); assay: pull-down; 20 µg purified His-histone H3 or His-ETV4 on Ni-NTA His-bind resin incubated with RIPA lysates of A549 or H1299 cells, 4 °C, 6 h; Western blot; only the target purified
[9] = molecular target: ETV4 (ETS transcription factor ETV4), endogenous (human (endogenous in A549, H1299, HEK293T)) (UniProt P43268); assay: proximity ligation; Duolink in situ PLA in fixed A549 and H1299 cells with anti-ETV4 and anti-MCM2 or anti-SUPT16H; also with EdU co-staining of S phase cells
[10] = molecular target: ETV4 (ETS transcription factor ETV4), endogenous (human (endogenous in A549, H1299, HEK293T)) (UniProt P43268); assay: co-IP; IP of endogenous ETV4 from chromatin-bound (Chrom.) proteins of A549 and H1299 cells, immunoblot
[11] = molecular target: Flag-tagged ETV4-ΔN (N-terminal deletion, Δ1-164aa) (UniProt P43268); assay: co-IP; HEK293T transfected with one tagged protein (Flag-ETV4 constructs, HA-MCM2 constructs or His-histone H3); anti-Flag, anti-HA or anti-His IP from RIPA lysate; immunoblot of the partner proteins of the lysate; remark: listed apart in the source
[12] = molecular target: Flag-tagged full-length ETV4 (FL, 1-484aa) (UniProt P43268); assay: as above; remark: listed apart in the source
[13] = molecular target: ETV4 (ETS transcription factor ETV4), endogenous (human (endogenous in A549, H1299, HEK293T)) (UniProt P43268); assay: co-IP; IP of the endogenous protein (anti-ETV4, anti-SSRP1 or anti-SUPT16H) from whole-cell RIPA lysates of A549 and H1299 cells, 4 °C overnight, Protein A/G Plus-Agarose, immunoblot; also cells synchronised by double thymidine block and released; remark: listed apart in the source

Measured: binding

ETV4 (ETS transcription factor ETV4), endogenous (from UniProt P43268 1-484)
binds: [1] | [2] | [3]

MCM2 (replicative helicase subunit), endogenous (from UniProt P49736 1-904)
binds: [4] | [5] | [6] | [7] | [8] | [9] | [10]

SUPT16H (FACT subunit), endogenous (from UniProt Q9Y5B9 1-1047)
binds: [6] | [1] | [7] | [8] | [9]

B1: ORC1 (origin recognition complex subunit 1), endogenous (protein, UniProt Q13415 1-861)
chain: MAHYPTRLKTRKTYSWVGRPLLDRKLHYQTYREMCVKTEGCSTEIHIQIGQFVLIEGDDDENPYVAKLLELFEDDSDPPPKKRARVQWFVRFCEVPACKRHLLGRKPGAQEIFWYDYPACDSNINAETIIGLVRVIPLAPKDVVPTNLKNEKTLFVKLSWNEKKFRPLSSELFAELNKPQESAAKCQKPVRAKSKSAESPSWTPAEHVAKRIESRHSASKSRQTPTHPLTPRARKRLELGNLGNPQMSQQTSCASLDSPGRIKRKVAFSEITSPSKRSQPDKLQTLSPALKAPEKTRETGLSYTEDDKKASPEHRIILRTRIAASKTIDIREERTLTPISGGQRSSVVPSVILKPENIKKRDAKEAKAQNEATSTPHRIRRKSSVLTMNRIRQQLRFLGNSKSDQEEKEILPAAEISDSSSDEEEASTPPLPRRAPRTVSRNLRSSLKSSLHTLTKVPKKSLKPRTPRCAAPQIRSRSLAAQEPASVLEEARLRLHVSAVPESLPCREQEFQDIYNFVESKLLDHTGGCMYISGVPGTGKTATVHEVIRCLQQAAQANDVPPFQYIEVNGMKLTEPHQVYVQILQKLTGQKATANHAAELLAKQFCTRGSPQETTVLLVDELDLLWTHKQDIMYNLFDWPTHKEARLVVLAIANTMDLPERIMMNRVSSRLGLTRMCFQPYTYSQLQQILRSRLKHLKAFEDDAIQLVARKVAALSGDARRCLDICRRATEICEFSQQKPDSPGLVTIAHSMEAVDEMFSSSYITAIKNSSVLEQSFLRAILAEFRRSGLEEATFQQIYSQHVALCRMEGLPYPTMSETMAVCSHLGSCRLLLVEPSRNDLLLRVRLNVSQDDVLYALKDE
binds: [11] | [12] | [13] | [10]

B2: ORC6, endogenous (protein, UniProt Q9Y5N6 1-252)
chain: MGSELIGRLAPRLGLAEPDMLRKAEEYLRLSRVKCVGLSARTTETSSAVMCLDLAASWMKCPLDRAYLIKLSGLNKETYQSCLKSFECLLGLNSNIGIRDLAVQFSCIEAVNMASKILKSYESSLPQTQQVDLDLSRPLFTSAALLSACKILKLKVDKNKMVATSGVKKAIFDRLCKQLEKIGQQVDREPGDVATPPRKRKKIVVEAPAKEMEKVEEMPHKPQKDEDLTQDYEEWKRKILENAASAQKATAE
binds: [11] | [12] | [13] | [10]
